Experimental data reported in patent publication US20230256019A1.
These are yes or no findings as the source states them, for the method shown. Some results given as binding are weak or reduced against the parent protein; the word gives no strength.

By UniProt entry, the sequences of proteins in these tests, tags left out. Residues count along the entry.
UniProt O76036, residues 22-304: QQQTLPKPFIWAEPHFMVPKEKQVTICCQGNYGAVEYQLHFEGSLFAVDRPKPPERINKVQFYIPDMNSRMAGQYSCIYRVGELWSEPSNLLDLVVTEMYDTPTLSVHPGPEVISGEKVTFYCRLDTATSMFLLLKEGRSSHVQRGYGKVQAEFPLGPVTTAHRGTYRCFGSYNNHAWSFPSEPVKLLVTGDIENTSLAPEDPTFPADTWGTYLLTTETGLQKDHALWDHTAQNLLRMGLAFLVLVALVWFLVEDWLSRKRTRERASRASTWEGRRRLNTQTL

Tests used:
[1] = molecular target: NKp46 on highly active NK cells GAIA-102 (human) (UniProt O76036); assay: flow cytometry on GAIA-102 NK cells, PE anti-human IgG (FIG. 8 legend)
[2] = molecular target: NKp46 on highly active NK cells GAIA-102 (human) (UniProt O76036); assay: flow cytometry on GAIA-102 NK cells, PE anti-human IgG; 13.3 µg/mL prototype substance, 1 µg/mL antibody drug
[3] = molecular target: NKp46 on highly active NK cells GAIA-102 (human) (UniProt O76036); assay: flow cytometry on GAIA-102 NK cells, PE anti-human IgG; 350 µg/mL prototype substance, 1 µg/mL Herceptin

Measured: binding

B1: prototype substance (pG2-NKp46) (designed binder)
chain: TYKLVINGKTLKGETTTEAVDAATAEKVFKQYANDNGVDGEWTYDDATKTFTVTEKPEVIDASELTPAVTTYKLVINGKTLKGETTTKAVDAETAEKAFKQYANDNGVDGVWTYDDATKTFTVTEGGGGSGGGGSGGGGSSTGSEVQLQQSGPELVKPGASVKISCKTSGYTFTEYTMHWVKQSHGKSLEWIGGISPNIGGTSYNQKFKGKATLTVDKSSSTAYMELRSLTSEDSAVYYCARRGGSFDYWGQGTTLTVSSVEGGSGGSGGSGGSGGVDDIVMTQSPATLSVTPGDRVSLSCRASQSISDYLHWYQQKSHESPRLLIKYASQSISGIPSRFSGSGSGSDFTLSINSVEPEDVGVYYCQNGHSFPLTFGAGTKLELKENLYFQGHHHHHHWSHPQFEKHHHHHH
binds: all assays above
